Measurements from publication PMC3037353.
These are yes or no findings as the source states them, for the method shown. Binding seen in cells or lysates may run through a third protein. Binding calls can cover weak binding; strength is not graded here. Where a sequence is shown, tags or fusion partners need not be part of it.

Target: HBZ-myc-His (tagged spliced HTLV-1 bZIP factor) (HTLV-1)
Assay: co-IP; 293FT cells transiently cotransfected, 24 h later PMA 50 ng/ml and ionomycin 1 ug/ml for 6 h; nuclear extracts (Nuclear Complex Co-IP Kit) prepared with or without ethidium bromide 10 ug/ml; IP with anti-myc (9E10) or anti-Flag (M2) overnight at 4 C, Protein G Sepharose; blots with anti-His, anti-Flag, anti-HA

B1: HA-tagged Foxp3 (protein, UniProt Q99JB6 1-417)
chain: MPNPRPAKPMAPSLALGPSPGVLPSWKTAPKGSELLGTRGSGGPFQGRDLRSGAHTSSSLNPLPPSQLQLPTVPLVMVAPSGARLGPSPHLQALLQDRPHFMHQLSTVDAHAQTPVLQVRPLDNPAMISLPPPSAATGVFSLKARPGLPPGINVASLEWVSREPALLCTFPRSGTPRKDSNLLAAPQGSYPLLANGVCKWPGCEKVFEEPEEFLKHCQADHLLDEKGKAQCLLQREVVQSLEQQLELEKEKLGAMQAHLAGKMALAKAPSVASMDKSSCCIVATSTQGSVLPAWSAPREAPDGGLFAVRRHLWGSHGNSSFPEFFHNMDYFKYHNMRPPFTYATLIRWAILEAPERQRTLNEIYHWFTRMFAYFRNHPATWKNAIRHNLSLHKCFVRVESEKGAVWTVDEFEFRKKR
binding: binds
